These are yes or no findings as the source states them, for the method shown. In cells and extracts the contact can be indirect. These calls come from enrichment with a bait or labelling near it, and not all partners need be listed.
T1: PfPrx1a wild type (P. falciparum) (UniProt Q8IL80)
T1 sequence: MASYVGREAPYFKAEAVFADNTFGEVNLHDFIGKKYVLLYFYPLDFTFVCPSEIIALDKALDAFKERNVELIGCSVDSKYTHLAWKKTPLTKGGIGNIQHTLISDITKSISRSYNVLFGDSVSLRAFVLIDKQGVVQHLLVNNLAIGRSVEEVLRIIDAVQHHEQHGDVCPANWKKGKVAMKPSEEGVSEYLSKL


Legend:
[1] = target: PfPrx1m^C187S (P. falciparum); experiment: affinity purification with mass spectrometry; […], RT, 2 h; […], pH 8.0; […]; only the target purified
[2] = target: T1, PfPrx1a wild type (P. falciparum); experiment: affinity purification with mass spectrometry; mixed disulfide fishing: reduced His-tagged Prx (wild type or Cys mutant) coupled to CNBr-activated Sepharose 4B, incubated with about 6 mg P. falciparum 3D7 trophozoite lysate protein, RT, 2 h; washed with 100 mM Tris, 500 mM NaCl, pH 8.0; eluted with 10 mM DTT; proteins found in two or three of three experiments, those on empty beads subtracted; only the target purified
[3] = target: PfPrx1a^C50S (P. falciparum); experiment: affinity purification with mass spectrometry; […], RT, 2 h; […], pH 8.0; […]; only the target purified

| Binder | binding [1] | binding [2] | binding [3] |
| --- | --- | --- | --- |
| glutathione S-transferase (enzyme, UniProt Q8ILQ7 1-211) MGDNIVLYYFDARGKAELIRLIFAYLGIEYTDKRFGVNGDAFVEFKNFKKEKDTPFEQVPILQIGDLILAQSQAIVRYLSKKYNICGESELNEFYADMIFCGVQDIHYKFNNTNLFKQNETTFLNEDLPKWSGYFEKLLKKNHTNNNNDKYYFVGNNLTYADLAVFNLYDDIETKYPSSLKNFPLLKAHNEFISNLPNIKNYITNRKESVY | binds |  |  |
| 40S ribosomal protein S3A (protein, UniProt O97313 1-262) MAVGKNKRTSKGKKGGKKKVTDVFTKKEWYDLKAPKMFLVRNFGKTLVTKTIGKKLATDSLKGRIYEVNLADLNNDEDQAHKKIKLSCDHIINRDCYTDFCGLSITRDKLCSLIRKGYTLIEGHTDVKTLDNYHLRMFCIAFTKKRQNQTKSTCYAQTSQIKKIRKKMVDIMTAEASKVLLKDLVKKFIPESIGKEIEKQCKKIYPLQNVLIRKVKILKRPKLDISKLMELHTDPKEESGKNVNALPESKEATNILTAELKH |  | binds |  |
| phosphoglycerate kinase (enzyme, UniProt P27362 1-416) MLGNKLSISDLKDIKNKKVLVRVDFNVPIENGIIKDTNRITATLPTINHLKKEGASKIILISHCGRPDGLRNEKYTLKPVAETLKGLLGEEVLFLNDCVGKEVEDKINAAKENSVILLENLRFHIEEEGKGVDANGNKVKANKEDVEKFQNDLTKLADVFINDAFGTAHRAHSSMVGVKLNVKASGFLMKKELEYFSKALENPQRPLLAILGGAKVSDKIQLIKNLLDKVDRMIIGGGMAYTFKKVLNNMKIGTSLFDEAGSKIVGEIMEKAKAKNVQIFLPVDFKIADNFDNNANTKFVTDEEGIPDNWMGLDAGPKSIENYKDVILTSKTVIWNGPQGVFEMPNFAKGSIECLNLVVEVTKKGAITIVGGGDTASLVEQQNKKNEISHVSTGGGASLELLEGKELPGVLALSNK |  | binds | binds |
| Ras-related protein Rab-2 (RAB2) (protein, UniProt Q9BHT6 1-213) MSPYEYLFKYIIIGDTGVGKSCLLLQFTDKRFRADHDLTIGVEFGARLVNLDNKQIKLQIWDTAGQESFRSITRSYYRGAAGALLVYDITRRETFNHLNRWLDEVRQNSNPHMAIILVGNKCDLERREVSAEEGAQFARQNGLIFLETSAKTAKNVEEAFLYTARKIYDNILEDVYDLSNESYGIKYGPNSQYSRVKLDIPSMPESRSGFSCC |  | binds |  |
| 60S acidic ribosomal protein P2 (PfP2) (protein, UniProt O00806 1-112) MAMKYVAAYLMCVLGGNENPSTKEVKNVLGAVNADVEDEVLNNFIDSLKGKSCHELITDGLKKLQNIGGGVAAAPAGAAAVETAEAKKEDKKEEKKEEEEEEEDDLGFSLFG |  | binds | binds |
| fructose-bisphosphate aldolase (enzyme, UniProt Q7KQL9 1-369) MAHCTEYMNAPKKLPADVAEELATTAQKLVQAGKGILAADESTQTIKKRFDNIKLENTIENRASYRDLLFGTKGLGKFISGAILFEETLFQKNEAGVPMVNLLHNENIIPGIKVDKGLVNIPCTDEEKSTQGLDGLAERCKEYYKAGARFAKWRTVLVIDTAKGKPTDLSIHETAWGLARYASICQQNRLVPIVEPEILADGPHSIEVCAVVTQKVLSCVFKALQENGVLLEGALLKPNMVTAGYECTAKTTTQDVGFLTVRTLRRTVPPALPGVVFLSGGQSEEEASVNLNSINALGPHPWALTFSYGRALQASVLNTWQGKKENVAKAREVLLQRAEANSLATYGKYKGGAGGENAGASLYEKKYVY |  | binds | binds |
| phosphoethanolamine N-methyltransferase (PMT) (enzyme, UniProt Q8IDQ9 1-266) MTLIENLNSDKTFLENNQYTDEGVKVYEFIFGENYISSGGLEATKKILSDIELNENSKVLDIGSGLGGGCMYINEKYGAHTHGIDICSNIVNMANERVSGNNKIIFEANDILTKEFPENNFDLIYSRDAILHLSLENKNKLFQKCYKWLKPTGTLLITDYCATEKENWDDEFKEYVKQRKYTLITVEEYADILTACNFKNVVSKDLSDYWNQLLEVEHKYLHENKEEFLKLFSEKKFISLDDGWSRKIKDSKRKMQRWGYFKATKN |  | binds | binds |
| S-adenosylmethionine decarboxylase/ornithine decarboxylase (enzyme, UniProt Q8IJ77 1-1434) MNGIFEGIEKRVVIKLKESFFKGNRNVNSFLDIPKELWEEKLKYIGCSIVSEISEDKNERRGERCRVYLLSESSLYIFDDSLFIKTCGKTRVLFFIPFVVDLLIYHMDNVGIIEKNCVYDETFIENEKFHNIAEFIKEHFLYCFFTHMNYRNKTKDGYFEQEYPHKSLEDEKKFFEFFFKNVQMYNTHLPMEKMHYIFFYSSDDVHMTDIASTFKFCSEIHLFGINKYNEKNQFHDAYLNNKSLNLFTRVHEDNLKLYDSSDADKEVTTHIYSTRGTYEDTGMVNCVDVIYKNESTLLNRNNIENIPSIENKESNNNSRCCHNNNYSGSCHNIVSVVPSERNNDHVHHRHYEDTLNRSNISAEDNNRNAQLEKEKDEDVRRDDEENKVLIKMIDTNLYECINYNKESFLYNEFYFTPCGYSCNVSEKNNYFCVHYSPEDSVSYVSVEVSSNLSCDRFLDFMHKQLNFYNGKYMFMINYVFCEESNNMSKMVPDDDNNNYSSGKSCVYYQDLNKKEKEEYYRLNKKLRNDLFINSKQFYELHTFTERTVGFMRVQYFVYKLRDVVKCVEKETLLARSSSCLFMFNNIKRNDVHDDYVTKSSNGGVIKQLTERDVDDMYEYALNFCKQNKIVVVDTNTFFDASKRKENLIKLEKVQTNEKDEYEEKDEVYRRGNNELSSLDHLDSKNNLIHMYYEKNKCDIINKDDENSTIATNNNDNNNDNNNDSSSYDKSITISRSSSCNNSHLSYSSFDNNHGNEKMKDYISVDENNNNNNNNNNNNNNNNNKNNNVLLTLQRNSDDENGKDKDNEKNDVSLENNMEKNYKEEIWNYYTKNKVEVKTLEKVLNENIDTSVVCINLQKILAQYVRFKKNLPHVTPFYSVKSNNDEVVIKFLYGLNCNFDCASIGEISKVIKLLPNLSRDRIIFANTIKSINSLIYARKENINLCTFDNLDELKKIYKYHPKCSLILRINVDFKNYKSYMSSKYGANEYEWEEMLLYAKKHNLNIVGVSFHVGSNTKNLFDFCLAIKLCRDVFDMSSNMGFNFYIINLGGGYPEELEYDNAKKHDKIHYCTLSLQEIKKDIQKFLNEETFLKTKYGYYSFEKISLAINMSIDHYFSHMKDNLRVICEPGRYMVAASSTLAVKIIGKRRPTFQGIMLKDLKDHYDPLNFAQQENKKQDETKINHNNDNNDNNDNNDNNDNNINNNNNNQKGGQGNIMNDLIITSTNDSTNKKNDHSSSQVIQNVSCTIRDKEGDNIKINTHTINNPNINGKENTVDGDNINIAHKNIGNNFSSSNSKLGNITNIKKKVVNINDNRYNYFSYYVSDSIYGCFSGIIFDEYNRCPIYVIKNKNNPNQNFMNFNLYLANVFGQSCDGLDMINSITYLPECYINDWLLYEYAGAYTFVSSSNFNGFKKCKKVYIFPESKPSLKGQPNKHW |  | binds |  |
| small GTP-binding protein sar1 (SAR1) (protein, UniProt Q8I1S0 1-192) MFIINWFRDILAHLGLSQKSARILFLGLDNAGKTTLLHMLKDDRVAQHVPTLHPHSEELVVGKIRFKTFDLGGHETARRIWRDYFAAVDAVVFMIDTTDRSRFDEAREELRHLLETEELSNVPFVVLGNKIDKPDAASEDELRQHLNLFSNITVHNNMKGGSGVRPVELFMCSVIRRMGYAAAFKWISQFLT |  | binds |  |

From publication PMC6753162
